Results are given in words; binding and its absence hold for the method and conditions named. In cells and extracts the contact can be indirect. Some entries that bind do so weakly or less than the wild type. Where a sequence is shown, tags or fusion partners need not be part of it.
Target: human BACE1 (β-site of APP cleaving enzyme 1), wild type, untagged, expressed in HEK293T cells (human), P56817
Settings: remark: other sources report otherwise

B1: human BACE1 (β-site of APP cleaving enzyme 1), wild type, untagged, expressed in HEK293T cells, P56817-1 46-501 (enzyme)
chain: ETDEEPEEPGRRGSFVEMVDNLRGKSGQGYYVEMTVGSPPQTLNILVDTGSSNFAVGAAPHPFLHRYYQRQLSSTYRDLRKGVYVPYTQGKWEGELGTDLVSIPHGPNVTVRANIAAITESDKFFINGSNWEGILGLAYAEIARPDDSLEPFFDSLVKQTHVPNLFSLQLCGAGFPLNQSEVLASVGGSMIIGGIDHSLYTGSLWYTPIRREWYYEVIIVRVEINGQDLKMDCKEYNYDKSIVDSGTTNLRLPKKVFEAAVKSIKAASSTEKFPDGFWLGEQLVCWQAGTTPWNIFPVISLYLMGEVTNQSFRITILPQQYLRPVEDVATSQDDCYKFAISQSSTGTVMGAVIMEGFYVVFDRARKRIGFAVSACHVHDEFRTAAVEGPFVTLDMEDCGYNIPQTDESTLMTIAYVMAAICALFMLPLCLMVCQWRCLRCLRQQHDDFADDISLLK
binding: binds
